Some of the results follow. Shown are side measurements of this screen, not its main read-out; they come without a call. Compounds called inactive in the main read-out are mostly missing here. Words in brackets tell the shape of the fitted curve; partial curves, single points and poor fits give uncertain potencies.
Experiment: qHTS Assay to Find Inhibitors of Chronic Active B-Cell Receptor Signaling
Settings: ABC-DLBCL IkBa-CBG/CBR reporter, luminescence ratio (green luciferase fused to IkBa over red control in TMD8 lymphoma cells), 4 h
Procedure, shortened: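 TMD8 human ABC-DLBCL cells with doxycycline-inducible IκBα–green luciferase fusion and unfused red luciferase, in 0.5% FBS medium; compounds up to 46 uM, 4 h at 37C. Green/red luminescence ratio, filter-overlap corrected, fitted to concentration-response curves.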

[1] = measured here: CBR red luminescence, cell number
[2] = measured here: IkBa-CBG green luminescence

Q: With `COc1ccc2c(c1)c(CC(=O)Nc1ccc(C(C)=O)cc1)c(C)n2C(=O)c1ccc(Cl)cc1` as the molecule, how does the AC50 [1] read?
A: The AC50 was 2.59 µM [falling, partial curve, poor fit].

Q: For `CCOC(=O)c1cnc2c(OC)cccc2c1N1CCN(c2ccc(OC)cc2)CC1`, which AC50 [1] is on record?
A: The AC50 was 13 µM [falling, single point].

Q: With `Cc1ccc(NC(=O)/C=C/c2cccc([N+](=O)[O-])c2)nc1` as the molecule, how does the AC50 [1] read?
A: The AC50 was 5.01 µM [rising, partial curve, poor fit].

Q: Which AC50 [1] does the source give for `Cc1nc2ncnn2c(N2CCN(S(=O)(=O)c3ccc(Br)cc3)CC2)c1C` here?
A: The AC50 was 14.1 µM [rising, partial curve, poor fit].

Q: With `Cc1ccc(NC(=O)NC(=O)CN2CCN(c3ccc(O)cc3)CC2)c(C)c1` as the molecule, how does the AC50 [1] read?
A: The AC50 was 14.1 µM [rising, partial curve, poor fit].

Q: For `COc1ccc(/C=N\NC(=O)c2cccc([N+](=O)[O-])c2)cc1Cn1cc([N+](=O)[O-])cn1`, which AC50 [1] is on record?
A: Its AC50 is 3.16 µM [rising, single point].

Q: With `CC(=O)Nc1ccc(N2C(C(C)=O)=NN(c3ccc(Cl)cc3)C2c2sccc2C)cc1` (configuration not stated) as the molecule, how does the AC50 [1] read?
A: Its AC50 is 7.31 µM [falling, partial curve].

Q: What does the source list for `Cc1cc(C)nc(S/C=C/C(=O)c2ccccc2F)n1`?
A: AC50 [1]: 6.31 µM [rising, single point]; AC50 [2]: 2.82 µM [falling, full curve, poor fit]

Q: With `CC1CCCC(C)N1CCNC(=O)Nc1ccc(Cl)cc1` (configuration not stated) as the molecule, how does the AC50 [1] read?
A: The AC50 was 2.31 µM [rising, partial curve, poor fit].

Q: For `CC(C)C(=O)Nc1nnc(Cc2ccccc2)s1`, which AC50 [1] is on record?
A: The AC50 was 2.82 µM [rising, partial curve, poor fit].

Q: Which AC50 [1] does the source give for `CCN(CC)CCCn1c2c(c(SCC(=O)Nc3nc4ccccc4s3)nc1=O)CCC2` here?
A: The AC50 was 20.6 µM [falling, single point].

Q: With `CC(=O)c1cc2c(cc1NS(=O)(=O)c1ccc(C)cc1)OCO2` as the molecule, how does the AC50 [1] read?
A: The AC50 was 14.6 µM [falling, single point].

Q: For `CSc1ccc(/C=N/NC(=O)c2sccc2C)cc1`, which AC50 [1] is on record?
A: Its AC50 is 0.184 µM [falling, full curve].

Q: For `COc1ccc(NC(=O)c2cc3n(n2)C(C(F)(F)F)CC(c2ccc4c(c2)OCO4)N3)cc1OC` (configuration not stated), which AC50 [1] is on record?
A: The AC50 was 7.94 µM [falling, partial curve, poor fit].

Q: With `COc1ccc(-c2nnc3n(CCc4ccccc4)c(=O)c4ccccc4n23)c(OC)c1` as the molecule, how does the AC50 [1] read?
A: The AC50 was 0.517 µM [falling, full curve, poor fit].

Q: Which AC50 [1] does the source give for `COc1cc(CCC(=O)OCC(=O)Nc2cccc(S(=O)(=O)N(C)C)c2)cc(OC)c1OC` here?
A: Its AC50 is 23.1 µM [rising, partial curve, poor fit].

Q: Which AC50 [1] does the source give for `O=C1NC(=S)N/C1=C/c1cc([N+](=O)[O-])ccc1N1CCOCC1` here?
A: The AC50 was 12.6 µM [rising, partial curve].

Q: For `CC(C)NS(=O)(=O)c1ccc(CCC(=O)NCc2ccco2)cc1`, which AC50 [1] is on record?
A: The AC50 was 3.26 µM [falling, full curve, poor fit].

Q: With `O=C1/C(=C/c2cccs2)SC(=S)N1c1ccccc1` as the molecule, how does the AC50 [1] read?
A: The AC50 was 0.501 µM [rising, full curve, poor fit].

Q: Which AC50 [1] does the source give for `CC(C)OC(=O)c1ccc(OC(=O)c2cccnc2)cc1` here?
A: Its AC50 is 20.6 µM [falling, partial curve].

Q: For `O=C1NCCN1CCNS(=O)(=O)c1ccc2ccccc2c1`, which AC50 [1] is on record?
A: Its AC50 is 6.31 µM [falling, single point].

Q: Which AC50 [1] does the source give for `O=C(O)c1cccc(N2C(=O)c3cccc(Oc4ccc(Cl)cc4)c3C2=O)c1` here?
A: The AC50 was 5.17 µM [falling, partial curve].

Q: What about the AC50 [2] of the same molecule?
A: Its AC50 is 20.6 µM [rising, partial curve, poor fit].

Q: For `CC1CC(C)CN(C(=O)CCCNC(=O)c2ccc(Cl)cc2)C1` (configuration not stated), which AC50 [1] is on record?
A: Its AC50 is 12.6 µM [falling, single point].

Q: Which AC50 [1] does the source give for `Cc1ccc(CNC(=O)NC2CCCCC2)cc1` here?
A: Its AC50 is 29.1 µM [rising, single point].

Q: For `COc1ccc(C2C(C#N)=C(N)Oc3cc(N)ccc32)cc1OC` (configuration not stated), which AC50 [1] is on record?
A: The AC50 was 35.5 µM [falling, single point].

Q: With `Cc1c(C#N)c(N=CN(C)C)c(C(=O)c2ccccc2)n1-c1ccccc1` as the molecule, how does the AC50 [1] read?
A: The AC50 was 6.51 µM [rising, full curve].

Q: Which AC50 [1] does the source give for `Cc1[nH]c2ccccc2c1/C=N/NC(=O)c1cc(-c2ccncc2)nc2ccccc12` here?
A: The AC50 was 6.31 µM [rising, single point].

Q: With `O=C(Nc1ccc(Cl)c(Cl)c1)N1CCOCC1` as the molecule, how does the AC50 [1] read?
A: Its AC50 is 1.78 µM [rising, partial curve, poor fit].

Q: Which AC50 [1] does the source give for `COc1ccccc1NC(=O)CSc1nnc(CNC(=O)COc2ccc(Cl)cc2)o1` here?
A: The AC50 was 3.16 µM [rising, single point].

Q: Which AC50 [1] does the source give for `COc1ccc(CNc2ncc(-c3ccc(Br)cc3)n2C)cc1OC` here?
A: Its AC50 is 2.82 µM [falling, partial curve, poor fit].

Q: For `Cc1ccc(CN(C(=O)c2csnn2)C(C(=O)NC2CCCC2)c2ccc(C)o2)cc1` (configuration not stated), which AC50 [1] is on record?
A: The AC50 was 3.66 µM [falling, full curve, poor fit].

Q: For `O=C(Nc1c(C(=O)O)[nH]c2ccccc12)NC1CCCCC1`, which AC50 [1] is on record?
A: Its AC50 is 3.98 µM [falling, full curve, poor fit].

Q: With `CC(=O)c1ccc(Nc2nc3ccc(C)cc3n3cnnc23)cc1` as the molecule, how does the AC50 [1] read?
A: Its AC50 is 0.316 µM [rising, full curve, poor fit].

Q: With `COc1cc(O)c(C(CC(=O)N2CCCC2)c2cc(OC)c(OC)c(OC)c2)c(OC)c1` (configuration not stated) as the molecule, how does the AC50 [1] read?
A: Its AC50 is 12.6 µM [rising, single point].

Q: With `O=C(/C=C/c1ccco1)NC(=S)Nc1ccccc1Br` as the molecule, how does the AC50 [1] read?
A: The AC50 was 35.5 µM [falling, single point].

Q: With `CC(C)[C@H]1CN(C)CCN1Cc1cn(C)nc1-c1cccc(Cl)c1` as the molecule, how does the AC50 [1] read?
A: The AC50 was 11.2 µM [falling, partial curve, poor fit].

Q: Which AC50 [1] does the source give for `CC(=O)Nc1cc(C(=O)NCc2ccc(C)cc2)ccc1S(=O)(=O)c1ccc(Cl)cc1` here?
A: Its AC50 is 0.501 µM [rising, full curve, poor fit].

Q: Which AC50 [1] does the source give for `Cc1ccc(NC(=S)N=Nc2c(O)n(C)c3ccc(S(=O)(=O)N4CCOCC4)cc23)cc1` here?
A: The AC50 was 29.1 µM [rising, single point].

Q: Which AC50 [1] does the source give for `NC(=O)c1csc(-c2ccncc2)n1` here?
A: Its AC50 is 6.51 µM [falling, partial curve].

Q: For `CCc1ccc(OCCCC(=O)NCc2ccco2)cc1`, which AC50 [1] is on record?
A: The AC50 was 35.5 µM [rising, partial curve, poor fit].

— PubChem BioAssay AID493014 (National Center for Advancing Translational Sciences (NCATS), 2011)
